The record followed here is patent US7785566B2 (GE Healthcare, Inc., priority 2003, dated 2010).

This data set in a line: general procedure: Fmoc solid-phase peptide synthesis; Fmoc-Ile-Wang resin; HBTU. The following applies: whole synthesis.

Consider “cPn216-Gly-Arg-Val-Tyr-Ile-His-Pro-Ile-OH”, for which the isolated mass (scale 0.1 mmol) is on record as 12 mg.

“N—((CH2)6-tetraamine)-Gly-Arg-Val-Tyr-Ile-His-Pro-Ile-OH”: the crude mass (scale 0.025 mmol) was determined as 25 mg.
